Reference: the supplement of paper PMC12823440, “Inhibitors supercharge kinase turnover through native proteolytic circuits” (Nature, 2025)
Some of the results follow. Hit calls seldom repeat between salt and free forms of one compound.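 Kinases, fused to nanoluciferase, were expressed in K562 cells; luminescence was measured every 4 h from 2 to 18 h as percent of control (DMSO = 100%, positive control = 0%). A time point is decreased if signal falls significantly (2 sigma). Hits were called by the authors by a rule that is not shown; the count of time points alone does not decide it.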

Protein sequences, listed by entry. Tags and fused reporters are not part of them. Lines headed by an entry give the natural chain unless they say otherwise; changes in a name come on top.
UniProt O75460: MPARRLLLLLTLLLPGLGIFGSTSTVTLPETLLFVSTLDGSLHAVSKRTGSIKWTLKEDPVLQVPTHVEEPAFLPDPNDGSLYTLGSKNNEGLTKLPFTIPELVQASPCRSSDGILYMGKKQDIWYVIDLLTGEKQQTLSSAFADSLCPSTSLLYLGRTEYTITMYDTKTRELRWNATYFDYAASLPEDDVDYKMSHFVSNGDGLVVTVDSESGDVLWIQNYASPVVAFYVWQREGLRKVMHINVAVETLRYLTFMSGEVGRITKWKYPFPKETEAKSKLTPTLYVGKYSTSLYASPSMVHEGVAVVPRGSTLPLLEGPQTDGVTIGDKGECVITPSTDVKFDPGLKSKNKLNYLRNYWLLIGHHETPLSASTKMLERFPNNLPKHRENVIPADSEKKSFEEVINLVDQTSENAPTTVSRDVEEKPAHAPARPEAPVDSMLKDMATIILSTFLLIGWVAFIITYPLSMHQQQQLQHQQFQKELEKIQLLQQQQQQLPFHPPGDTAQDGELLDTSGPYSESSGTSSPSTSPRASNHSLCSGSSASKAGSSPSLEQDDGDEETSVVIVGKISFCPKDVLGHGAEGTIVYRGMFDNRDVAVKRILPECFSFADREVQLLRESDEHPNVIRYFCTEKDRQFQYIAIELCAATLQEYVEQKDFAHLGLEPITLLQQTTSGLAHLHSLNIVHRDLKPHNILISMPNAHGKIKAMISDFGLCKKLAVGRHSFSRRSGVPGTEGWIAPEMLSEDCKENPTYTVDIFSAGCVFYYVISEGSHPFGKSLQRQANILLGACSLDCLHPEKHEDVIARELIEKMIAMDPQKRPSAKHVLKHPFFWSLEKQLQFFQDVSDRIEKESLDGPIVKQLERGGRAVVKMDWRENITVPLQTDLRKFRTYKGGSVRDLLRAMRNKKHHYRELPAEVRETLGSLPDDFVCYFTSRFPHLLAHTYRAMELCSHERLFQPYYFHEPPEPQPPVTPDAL
UniProt P22607, whole entry, looked up: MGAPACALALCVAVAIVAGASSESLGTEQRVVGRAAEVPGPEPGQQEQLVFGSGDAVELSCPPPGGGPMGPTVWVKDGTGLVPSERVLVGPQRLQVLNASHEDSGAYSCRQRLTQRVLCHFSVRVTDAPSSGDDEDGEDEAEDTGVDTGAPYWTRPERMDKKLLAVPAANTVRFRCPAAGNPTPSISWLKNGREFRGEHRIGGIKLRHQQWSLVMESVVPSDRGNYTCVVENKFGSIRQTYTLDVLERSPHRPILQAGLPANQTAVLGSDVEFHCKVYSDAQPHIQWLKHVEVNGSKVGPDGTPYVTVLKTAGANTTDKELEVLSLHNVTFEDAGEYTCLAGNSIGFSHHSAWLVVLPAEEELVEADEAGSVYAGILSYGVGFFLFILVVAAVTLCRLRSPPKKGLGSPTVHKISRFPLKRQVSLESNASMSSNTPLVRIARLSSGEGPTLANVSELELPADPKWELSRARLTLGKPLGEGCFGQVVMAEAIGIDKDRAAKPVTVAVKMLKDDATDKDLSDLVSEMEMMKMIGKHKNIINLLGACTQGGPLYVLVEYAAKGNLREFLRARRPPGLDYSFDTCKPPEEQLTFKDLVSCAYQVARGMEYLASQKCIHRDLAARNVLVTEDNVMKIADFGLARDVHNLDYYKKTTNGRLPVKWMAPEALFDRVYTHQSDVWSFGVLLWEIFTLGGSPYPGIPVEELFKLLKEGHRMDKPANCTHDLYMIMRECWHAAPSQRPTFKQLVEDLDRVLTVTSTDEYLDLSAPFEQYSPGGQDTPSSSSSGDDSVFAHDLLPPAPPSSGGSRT
UniProt P06241, whole entry, looked up: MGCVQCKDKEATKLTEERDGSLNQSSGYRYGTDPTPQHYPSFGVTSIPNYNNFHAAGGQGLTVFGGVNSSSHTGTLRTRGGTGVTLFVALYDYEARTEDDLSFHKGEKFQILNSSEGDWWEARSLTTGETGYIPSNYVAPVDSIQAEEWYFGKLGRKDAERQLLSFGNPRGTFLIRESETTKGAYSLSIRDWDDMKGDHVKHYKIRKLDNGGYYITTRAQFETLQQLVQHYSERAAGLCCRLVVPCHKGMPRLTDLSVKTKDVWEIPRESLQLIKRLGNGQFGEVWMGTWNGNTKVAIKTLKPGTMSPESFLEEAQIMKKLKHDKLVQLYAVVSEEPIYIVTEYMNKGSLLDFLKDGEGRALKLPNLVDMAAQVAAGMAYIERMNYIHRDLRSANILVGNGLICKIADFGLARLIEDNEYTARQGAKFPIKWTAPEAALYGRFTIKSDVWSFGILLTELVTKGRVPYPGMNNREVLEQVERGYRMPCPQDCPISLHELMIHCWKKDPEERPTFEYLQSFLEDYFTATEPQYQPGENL
UniProt P23458: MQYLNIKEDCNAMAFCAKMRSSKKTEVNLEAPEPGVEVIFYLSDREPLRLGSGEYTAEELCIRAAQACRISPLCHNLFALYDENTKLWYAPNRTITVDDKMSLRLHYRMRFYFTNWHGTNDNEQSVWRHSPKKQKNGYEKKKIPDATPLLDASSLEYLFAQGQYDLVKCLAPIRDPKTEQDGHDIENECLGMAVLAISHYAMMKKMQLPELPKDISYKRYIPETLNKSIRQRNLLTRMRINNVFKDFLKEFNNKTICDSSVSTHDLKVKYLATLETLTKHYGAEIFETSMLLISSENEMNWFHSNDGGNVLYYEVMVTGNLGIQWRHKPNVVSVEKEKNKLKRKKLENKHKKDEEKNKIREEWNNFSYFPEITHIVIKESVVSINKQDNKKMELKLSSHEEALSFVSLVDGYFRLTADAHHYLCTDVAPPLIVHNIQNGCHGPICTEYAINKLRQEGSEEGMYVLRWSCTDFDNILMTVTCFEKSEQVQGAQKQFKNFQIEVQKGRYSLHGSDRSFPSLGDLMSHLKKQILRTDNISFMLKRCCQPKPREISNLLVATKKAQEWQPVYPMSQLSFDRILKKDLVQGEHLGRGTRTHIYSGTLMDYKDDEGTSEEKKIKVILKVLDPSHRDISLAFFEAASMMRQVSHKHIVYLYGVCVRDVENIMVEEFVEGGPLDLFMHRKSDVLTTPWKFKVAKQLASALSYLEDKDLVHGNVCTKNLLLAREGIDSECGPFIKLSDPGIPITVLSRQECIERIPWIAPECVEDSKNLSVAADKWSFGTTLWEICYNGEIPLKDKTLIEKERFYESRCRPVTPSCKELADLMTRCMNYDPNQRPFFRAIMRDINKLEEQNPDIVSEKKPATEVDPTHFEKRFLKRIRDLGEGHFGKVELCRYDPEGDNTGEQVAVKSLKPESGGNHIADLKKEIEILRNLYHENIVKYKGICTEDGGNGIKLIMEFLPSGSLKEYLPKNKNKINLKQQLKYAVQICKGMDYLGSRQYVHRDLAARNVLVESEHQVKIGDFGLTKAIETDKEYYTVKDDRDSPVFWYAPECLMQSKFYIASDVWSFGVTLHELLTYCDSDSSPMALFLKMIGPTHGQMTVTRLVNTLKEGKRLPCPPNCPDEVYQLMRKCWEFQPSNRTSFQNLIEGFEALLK
UniProt P53667: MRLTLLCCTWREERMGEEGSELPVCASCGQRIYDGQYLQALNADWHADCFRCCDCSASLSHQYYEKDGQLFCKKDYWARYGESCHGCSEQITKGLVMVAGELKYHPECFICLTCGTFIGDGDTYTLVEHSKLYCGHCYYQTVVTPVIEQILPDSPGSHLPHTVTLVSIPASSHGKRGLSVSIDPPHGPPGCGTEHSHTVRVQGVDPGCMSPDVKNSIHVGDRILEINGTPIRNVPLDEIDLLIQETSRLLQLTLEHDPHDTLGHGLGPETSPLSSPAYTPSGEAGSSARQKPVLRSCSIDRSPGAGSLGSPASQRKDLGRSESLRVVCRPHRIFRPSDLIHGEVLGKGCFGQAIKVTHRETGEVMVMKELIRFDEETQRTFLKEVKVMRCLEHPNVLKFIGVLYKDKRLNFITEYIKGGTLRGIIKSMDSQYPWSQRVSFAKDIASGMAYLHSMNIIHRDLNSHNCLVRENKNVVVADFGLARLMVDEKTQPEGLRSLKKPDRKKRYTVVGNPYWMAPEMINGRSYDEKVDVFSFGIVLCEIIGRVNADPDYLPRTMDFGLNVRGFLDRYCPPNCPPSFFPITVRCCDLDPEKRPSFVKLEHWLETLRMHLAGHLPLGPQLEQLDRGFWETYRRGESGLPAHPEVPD
UniProt Q8IWU2: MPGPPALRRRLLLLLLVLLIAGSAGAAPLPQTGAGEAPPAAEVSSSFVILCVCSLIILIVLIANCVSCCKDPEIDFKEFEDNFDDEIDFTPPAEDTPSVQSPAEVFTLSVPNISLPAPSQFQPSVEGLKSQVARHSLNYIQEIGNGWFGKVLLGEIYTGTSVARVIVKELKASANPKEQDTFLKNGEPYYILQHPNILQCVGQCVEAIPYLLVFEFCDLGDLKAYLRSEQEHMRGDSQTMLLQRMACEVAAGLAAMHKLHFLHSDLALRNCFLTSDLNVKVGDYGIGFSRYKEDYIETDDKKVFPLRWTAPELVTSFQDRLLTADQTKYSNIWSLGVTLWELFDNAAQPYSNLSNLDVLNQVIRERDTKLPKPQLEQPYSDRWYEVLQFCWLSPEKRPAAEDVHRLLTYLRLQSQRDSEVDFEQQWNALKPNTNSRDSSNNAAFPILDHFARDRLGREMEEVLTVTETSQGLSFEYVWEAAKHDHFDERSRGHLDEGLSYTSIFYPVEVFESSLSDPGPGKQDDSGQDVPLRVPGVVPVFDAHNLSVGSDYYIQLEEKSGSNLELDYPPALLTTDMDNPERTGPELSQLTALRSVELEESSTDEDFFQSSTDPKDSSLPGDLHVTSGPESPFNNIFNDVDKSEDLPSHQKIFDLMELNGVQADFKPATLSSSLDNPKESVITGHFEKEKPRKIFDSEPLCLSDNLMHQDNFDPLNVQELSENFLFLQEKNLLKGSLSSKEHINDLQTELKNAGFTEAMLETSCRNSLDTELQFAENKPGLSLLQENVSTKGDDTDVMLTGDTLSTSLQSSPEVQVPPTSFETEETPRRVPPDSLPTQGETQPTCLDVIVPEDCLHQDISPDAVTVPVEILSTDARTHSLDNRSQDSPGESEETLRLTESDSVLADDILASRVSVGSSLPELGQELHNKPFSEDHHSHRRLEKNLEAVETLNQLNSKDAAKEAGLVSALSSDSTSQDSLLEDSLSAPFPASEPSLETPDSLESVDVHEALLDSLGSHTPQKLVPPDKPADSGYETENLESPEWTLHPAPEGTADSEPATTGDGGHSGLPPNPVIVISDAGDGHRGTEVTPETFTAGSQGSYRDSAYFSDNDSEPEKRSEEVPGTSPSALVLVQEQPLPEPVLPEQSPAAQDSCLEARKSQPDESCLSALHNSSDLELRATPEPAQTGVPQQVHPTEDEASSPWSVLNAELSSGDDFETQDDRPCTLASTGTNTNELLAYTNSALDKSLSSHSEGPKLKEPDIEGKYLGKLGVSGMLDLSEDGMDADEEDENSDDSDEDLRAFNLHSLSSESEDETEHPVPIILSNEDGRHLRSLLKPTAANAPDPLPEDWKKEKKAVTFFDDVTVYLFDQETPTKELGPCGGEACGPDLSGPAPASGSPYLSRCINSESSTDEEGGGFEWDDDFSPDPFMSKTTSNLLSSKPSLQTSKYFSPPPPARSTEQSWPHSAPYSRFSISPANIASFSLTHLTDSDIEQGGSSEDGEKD
UniProt P07948: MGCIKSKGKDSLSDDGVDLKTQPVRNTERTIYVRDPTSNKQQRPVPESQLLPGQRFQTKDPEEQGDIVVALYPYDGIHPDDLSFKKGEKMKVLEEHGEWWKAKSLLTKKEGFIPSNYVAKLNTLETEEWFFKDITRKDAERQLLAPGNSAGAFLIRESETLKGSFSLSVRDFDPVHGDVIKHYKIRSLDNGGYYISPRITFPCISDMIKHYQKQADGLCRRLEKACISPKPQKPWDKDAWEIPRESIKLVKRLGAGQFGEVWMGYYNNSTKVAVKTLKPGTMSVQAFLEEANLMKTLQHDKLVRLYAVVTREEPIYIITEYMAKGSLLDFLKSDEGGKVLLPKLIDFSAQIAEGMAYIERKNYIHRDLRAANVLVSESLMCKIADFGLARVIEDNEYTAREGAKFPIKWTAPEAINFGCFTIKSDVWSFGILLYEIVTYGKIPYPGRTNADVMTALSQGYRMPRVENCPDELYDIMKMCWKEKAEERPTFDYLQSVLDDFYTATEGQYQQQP

What was measured:
Assay in all cases: kinase-Nluc reporter destabilization hit call (1 = scored as downregulated) (binary); higher = compound decreases kinase abundance
Details in all cases: 10 µM; K562; 2-18 h
ERN1 = ERN1 (UniProt O75460)
FGFR1 = FGFR1 (UniProt P11362)
FGFR2 = FGFR2 (UniProt P21802)
FGFR3 = FGFR3 (UniProt P22607)
FGR = FGR (UniProt P09769)
FLT3 = FLT3 (UniProt P36888)
FYN = FYN (UniProt P06241)
GSK3A = GSK3A (UniProt P49840)
HER2 = HER2 (UniProt P04626)
INSRR = INSRR (UniProt P14616)
IRAK3 = IRAK3 (UniProt Q9Y616)
JAK1 = JAK1 (UniProt P23458)
LIMK1 = LIMK1 (UniProt P53667)
LIMK2 = LIMK2 (UniProt P53671)
LMTK2 = LMTK2 (UniProt Q8IWU2)
LYN = LYN (UniProt P07948)
MAP2K1 = MAP2K1 (UniProt Q02750)
MAP2K2 = MAP2K2 (UniProt P36507)
MAP4K2 = MAP4K2 (UniProt Q12851)
LCK = LCK (UniProt P06239)

Compound | kinase-Nluc reporter destabilization hit call (ERN1) | kinase-Nluc reporter destabilization hit call (FGFR1) | kinase-Nluc reporter destabilization hit call (FGFR2) | kinase-Nluc reporter destabilization hit call (FGFR3) | kinase-Nluc reporter destabilization hit call (FGR) | kinase-Nluc reporter destabilization hit call (FLT3) | kinase-Nluc reporter destabilization hit call (FYN) | kinase-Nluc reporter destabilization hit call (GSK3A) | kinase-Nluc reporter destabilization hit call (HER2) | kinase-Nluc reporter destabilization hit call (INSRR) | kinase-Nluc reporter destabilization hit call (IRAK3) | kinase-Nluc reporter destabilization hit call (JAK1) | kinase-Nluc reporter destabilization hit call (LIMK1) | kinase-Nluc reporter destabilization hit call (LIMK2) | kinase-Nluc reporter destabilization hit call (LMTK2) | kinase-Nluc reporter destabilization hit call (LYN) | kinase-Nluc reporter destabilization hit call (MAP2K1) | kinase-Nluc reporter destabilization hit call (MAP2K2) | kinase-Nluc reporter destabilization hit call (MAP4K2) | kinase-Nluc reporter destabilization hit call (LCK)
CC(C)(C)n1nc(-c2ccc(Cl)cc2)c2c(N)ncnc21 | inactive: 0 | inactive: 0 | inactive: 0 | inactive: 0 | inactive: 0 | inactive: 0 | inactive: 0 | inactive: 0 | inactive: 0 | inactive: 0 | inactive: 0 | inactive: 0 | inactive: 0 | inactive: 0 | inactive: 0 | inactive: 0 | inactive: 0 | inactive: 0 | inactive: 0 | 
Fc1ccc(-c2nc(-c3ccc4ccccc4c3F)[nH]c2-c2ccncc2)cc1 | inactive: 0 | inactive: 0 |  | inactive: 0 | inactive: 0 | inactive: 0 | inactive: 0 | inactive: 0 | active: 1 | inactive: 0 | inactive: 0 | inactive: 0 | inactive: 0 | inactive: 0 | inactive: 0 | inactive: 0 | inactive: 0 | inactive: 0 | inactive: 0 | inactive: 0
CNC(=O)c1cc(Oc2ccc(NC(=O)Nc3ccc(Cl)c(C(F)(F)F)c3)cc2)ccn1 [Sorafenib (Tosylate)] | inactive: 0 | inactive: 0 | inactive: 0 | inactive: 0 | inactive: 0 | inactive: 0 | inactive: 0 | inactive: 0 | inactive: 0 | inactive: 0 | inactive: 0 | inactive: 0 | inactive: 0 | inactive: 0 | inactive: 0 | inactive: 0 | inactive: 0 | inactive: 0 | inactive: 0 | 
